# This list was built around the results that the source calls inconclusive (neither active nor inactive); the mix of calls is not that of the screen. For part of these data: Potencies of inconclusive entries are doubtful fits and often do not repeat. Calls of active or inactive are those of the source. Unless noted, calls follow the shape of the dose curve; as a rule, active = well fitted curve in the direction sought with a large enough effect; inconclusive = small, poorly fitted or top-dose-only effect, or another doubt; inactive = no such curve, though single readings can be large; an effect the other way counts as inactive or inconclusive.
# Legend:
# [1] = VSVG counterscreen qHTS to identify inhibitors of SARS-CoV-2 cell entry (AID 1645847; calls by dose curve; also: nearly all actives have a fitted effect of over 65% in size)
# In short: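 HEK293-ACE2 cells (Expi293F stably expressing human ACE2) were pretreated with compound for 1 h at 37 °C, then infected with MLV-based VSV-G pseudotyped particles for 48 h. Luciferase luminescence was normalized to VSV-G PP and bald PP wells.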
# [2] = Primary qHTS to identify inhibitors of SARS-CoV-2 cell entry (AID 1645846; calls by dose curve; also: nearly all actives have a fitted effect of over 45% in size; also: potency is read from the fitted curve at half-maximal effect)
# In short: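 Luminescence readout (Bright-Glo luciferase) 48 h after pseudoparticle addition. HEK293-ACE2 cells, 1500/well; compound pre-incubation 1 h; Normalized to spike PP and bald PP.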
# [3] = target: Phospholipid hydroperoxide glutathione peroxidase GPX4 (Homo sapiens) (UniProt P36969); experiment: Primary qHTS Assay for Inhibitors of Recombinant Selenoprotein Glutathione Peroxidase 4 (GPX4) (AID 1845192); also: nearly all actives have a fitted effect of over 65% in size; also: potency is read from the fitted curve at half-maximal effect
# In short: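 NADPH consumption followed by fluorescence at 340/450 nm, t=0 and after 15 min at room temperature. Reaction started with cumene hydroperoxide (0.5 mM final) after 30 min compound–GPX4 preincubation; final 200 nM GPX4, 100 nM GR, 1 mM GSH, 0.5 mM NADPH.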
# [4] = Primary qHTS for inhibitors of nuclear receptor binding SET domain protein 2 (NSD2) in an RCH-ACV wild type WT cells (2C) (AID 1645877); also: potency is read from the fitted curve at half-maximal effect; nearly all actives have a fitted effect of over 70% in size
# [5] = NCATS anti-infectives library activity on HEK293 viability as a counter-qHTS vs the C. elegans viability qHTS (AID 1745854); also: potency is read from the fitted curve at half-maximal effect
# In short: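 CellTiter-Glo luminescence, read on a CCD imager, scored viability of HEK293 cells after 24 hr compound exposure at 37C. Library tested in several concentrations, 1:5 steps, up to 41.7 uM; digitonin served as control.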
# [6] = target: Glutathione peroxidase 1 (Homo sapiens) (UniProt P07203); experiment: Primary qHTS Assay for Inhibitors of Recombinant Selenoprotein Glutathione Peroxidase 1 (GPX1) (AID 1845191); also: nearly all actives have a fitted effect of over 65% in size
# In short: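 NADPH consumption tracked by fluorescence at 340/450 nm between t=0 and t=15 min, room temperature. Final mix: 10 nM GPX1, 100 nM glutathione reductase, 1 mM GSH, 0.5 mM NADPH, 0.5 mM cumene hydroperoxide, 0.01% BSA; 30 min compound–enzyme preincubation.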
# [7] = target: Rap guanine nucleotide exchange factor 4 (Homo sapiens) (UniProt Q8WZA2); experiment: Confirmatory qHTS for antagonist of cAMP-regulated guanine nucleotide exchange factor 4 (EPAC2) (AID 1645885); also: potency is read from the fitted curve at half-maximal effect; nearly all actives have a fitted effect of over 25% in size
# [8] = target: Luciferin 4-monooxygenase (Photinus pyralis) (UniProt P08659); experiment: Primary firefly luciferase (FLuc) qHTS assay for identification of artifact compounds. (AID 1845220); also: series mostly up to about 54 µM; nearly all actives have a fitted effect of over 60% in size
# In short: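 Cell-free, 1536-well qHTS. Buffer pH 7.6 with 0.01% Tween-20 and 0.05% BSA; 10 uM D-luciferin, 10 uM ATP; 10 nM P. pyralis luciferase; luminescence after 5 min.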
smiles,measurement,setting,value
CCCCOCCOc1nc(-c2ccc(C(=O)O)c(F)c2)sc1C,Potency,[1],inactive
COc1cccc2c1C(=O)c1c(O)c3c(c(O)c1C2=O)C[C@@](O)(C(=O)CO)CC3OC1CC(N2CCOC(OC)C2)C(O)C(C)O1 (stereo not given in full),Potency,[2],"inconclusive: 1 µM [inhibitor, full curve, poor fit]"
same,Potency,[3],"inconclusive: 36 µM [inhibitor, partial curve, poor fit]"
O=c1oc2ccccc2c(O)c1Cc1c(O)c2ccccc2oc1=O,Potency,[2],inactive
same,Potency,[4],"inconclusive: 29.9 µM [inhibitor, single point]"
same,Potency,[3],inactive
C[C@@H]1C[C@@H]([C@H](O)CC2CC(=O)NC(=O)C2)C(=O)[C@@H](C)C1,Potency,[2],active: 2.51 µM
same,Potency,[5],"inconclusive: 1.41 µM [cytotoxic, full curve]"
O=c1[nH]c2ccccc2n1C1CCN(Cc2ccc(-c3[nH]c4cc5ncnc5cc4nc3-c3ccccc3)cc2)CC1,Potency,[2],"inconclusive: 28.2 µM [inhibitor, partial curve, poor fit]"
same,Potency,[3],"inconclusive: 16.1 µM [inhibitor, single point]"
Cc1nnc2n1-c1sc(CCC(=O)N3CCOCC3)cc1C(c1ccccc1Cl)=NC2,Potency,[2],"inconclusive: 3.98 µM [inhibitor, full curve, poor fit]"
same,Potency,[6],inactive
O=c1[nH]c2ccccc2n1C1CCN(CCCC(c2ccc(F)cc2)c2ccc(F)cc2)CC1,Potency,[2],"inconclusive: 39.8 µM [inhibitor, single point]"
same,Potency,[7],"inconclusive: 44.1 µM [inhibitor, partial curve]"
same,Potency,[8],inactive

# 2 entries from above, set out differently:
smiles	measurement	setting	value
Cc1nnc2n1-c1sc(CCC(=O)N3CCOCC3)cc1C(c1ccccc1Cl)=NC2	Potency	[2]	inconclusive: 3.98 µM [inhibitor, full curve, poor fit]
same	Potency	[6]	inactive
